Test results published in the supplement of paper PMC10849652.
This is one part of the list.

Sequences of proteins named here, by UniProt entry; tags and fusion partners are left off. A change or cut given only in a name is not applied to a line headed by its entry.
UniProt Q96I34: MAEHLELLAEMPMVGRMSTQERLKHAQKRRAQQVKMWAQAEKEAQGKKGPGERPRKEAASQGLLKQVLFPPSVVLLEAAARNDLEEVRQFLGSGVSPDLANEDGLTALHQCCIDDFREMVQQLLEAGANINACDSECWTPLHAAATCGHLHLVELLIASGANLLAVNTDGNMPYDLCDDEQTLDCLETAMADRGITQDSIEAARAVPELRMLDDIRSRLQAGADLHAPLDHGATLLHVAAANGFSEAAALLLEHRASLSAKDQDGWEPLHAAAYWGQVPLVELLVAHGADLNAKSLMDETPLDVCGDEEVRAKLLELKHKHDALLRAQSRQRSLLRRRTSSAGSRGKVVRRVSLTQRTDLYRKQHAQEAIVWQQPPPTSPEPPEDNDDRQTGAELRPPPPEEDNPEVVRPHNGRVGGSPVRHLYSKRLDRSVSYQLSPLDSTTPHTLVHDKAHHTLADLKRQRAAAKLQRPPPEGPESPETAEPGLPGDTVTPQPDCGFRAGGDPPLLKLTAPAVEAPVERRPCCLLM
UniProt Q06830: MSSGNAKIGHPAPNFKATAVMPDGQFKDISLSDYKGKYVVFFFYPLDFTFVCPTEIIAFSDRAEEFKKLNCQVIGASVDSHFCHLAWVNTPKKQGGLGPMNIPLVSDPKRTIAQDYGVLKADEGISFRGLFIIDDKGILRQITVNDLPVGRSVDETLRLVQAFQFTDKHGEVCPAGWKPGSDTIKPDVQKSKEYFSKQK
UniProt P30153, whole entry, looked up: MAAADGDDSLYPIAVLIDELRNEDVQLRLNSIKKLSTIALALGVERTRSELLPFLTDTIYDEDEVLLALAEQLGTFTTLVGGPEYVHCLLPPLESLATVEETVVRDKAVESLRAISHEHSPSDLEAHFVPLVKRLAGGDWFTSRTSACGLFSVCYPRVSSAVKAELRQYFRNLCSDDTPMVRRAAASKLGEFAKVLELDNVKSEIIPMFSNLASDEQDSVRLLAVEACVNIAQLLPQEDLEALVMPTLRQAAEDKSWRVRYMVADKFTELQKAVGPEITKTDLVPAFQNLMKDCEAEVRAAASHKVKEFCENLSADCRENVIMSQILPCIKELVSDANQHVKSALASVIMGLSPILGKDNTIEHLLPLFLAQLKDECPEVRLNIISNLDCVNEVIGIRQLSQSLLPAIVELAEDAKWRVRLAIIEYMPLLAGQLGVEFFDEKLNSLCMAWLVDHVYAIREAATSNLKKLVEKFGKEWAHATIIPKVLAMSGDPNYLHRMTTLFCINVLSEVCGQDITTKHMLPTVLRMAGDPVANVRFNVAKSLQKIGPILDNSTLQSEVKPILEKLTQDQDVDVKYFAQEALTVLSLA
UniProt Q13362, whole entry, looked up: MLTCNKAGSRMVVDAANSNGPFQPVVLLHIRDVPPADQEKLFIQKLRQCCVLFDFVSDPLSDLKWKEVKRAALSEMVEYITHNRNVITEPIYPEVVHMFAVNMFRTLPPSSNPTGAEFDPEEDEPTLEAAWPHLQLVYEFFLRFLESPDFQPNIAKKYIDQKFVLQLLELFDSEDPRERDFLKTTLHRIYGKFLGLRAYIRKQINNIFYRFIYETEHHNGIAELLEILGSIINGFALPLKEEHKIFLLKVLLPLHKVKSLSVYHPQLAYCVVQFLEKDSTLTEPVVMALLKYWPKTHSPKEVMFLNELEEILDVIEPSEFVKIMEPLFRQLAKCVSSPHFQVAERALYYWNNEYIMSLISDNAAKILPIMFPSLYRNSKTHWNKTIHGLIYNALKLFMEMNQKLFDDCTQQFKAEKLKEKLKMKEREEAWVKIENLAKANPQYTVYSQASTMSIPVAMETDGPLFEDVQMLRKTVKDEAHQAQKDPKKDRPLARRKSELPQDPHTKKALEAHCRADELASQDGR
UniProt O95685: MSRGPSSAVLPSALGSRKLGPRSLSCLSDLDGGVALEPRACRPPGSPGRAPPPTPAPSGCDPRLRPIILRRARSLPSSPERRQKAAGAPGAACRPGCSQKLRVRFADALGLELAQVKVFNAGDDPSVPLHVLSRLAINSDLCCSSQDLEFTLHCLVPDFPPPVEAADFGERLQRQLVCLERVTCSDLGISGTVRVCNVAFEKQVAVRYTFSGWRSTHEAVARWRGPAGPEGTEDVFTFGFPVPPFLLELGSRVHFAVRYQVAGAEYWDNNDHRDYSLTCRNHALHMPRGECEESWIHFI
UniProt Q8WUF5: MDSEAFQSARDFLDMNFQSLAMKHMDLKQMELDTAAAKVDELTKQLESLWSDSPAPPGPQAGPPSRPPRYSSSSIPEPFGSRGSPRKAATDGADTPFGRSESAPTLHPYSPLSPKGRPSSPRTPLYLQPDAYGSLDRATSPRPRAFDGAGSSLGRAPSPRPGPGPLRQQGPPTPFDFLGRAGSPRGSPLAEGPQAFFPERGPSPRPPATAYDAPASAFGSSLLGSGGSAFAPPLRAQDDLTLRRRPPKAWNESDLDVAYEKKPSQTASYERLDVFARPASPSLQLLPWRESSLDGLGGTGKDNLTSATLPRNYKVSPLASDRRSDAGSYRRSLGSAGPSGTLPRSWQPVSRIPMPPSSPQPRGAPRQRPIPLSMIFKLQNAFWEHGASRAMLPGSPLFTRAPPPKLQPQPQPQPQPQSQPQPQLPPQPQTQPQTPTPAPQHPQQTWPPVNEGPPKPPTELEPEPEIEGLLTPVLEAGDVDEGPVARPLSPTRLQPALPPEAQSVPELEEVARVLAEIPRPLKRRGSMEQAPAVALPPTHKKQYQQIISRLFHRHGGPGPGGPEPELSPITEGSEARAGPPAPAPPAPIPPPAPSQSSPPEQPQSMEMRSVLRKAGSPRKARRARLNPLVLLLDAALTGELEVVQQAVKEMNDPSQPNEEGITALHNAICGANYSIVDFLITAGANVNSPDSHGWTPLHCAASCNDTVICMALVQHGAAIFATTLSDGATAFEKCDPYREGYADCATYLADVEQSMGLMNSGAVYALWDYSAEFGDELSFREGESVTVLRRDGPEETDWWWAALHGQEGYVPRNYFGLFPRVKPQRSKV
UniProt O00743: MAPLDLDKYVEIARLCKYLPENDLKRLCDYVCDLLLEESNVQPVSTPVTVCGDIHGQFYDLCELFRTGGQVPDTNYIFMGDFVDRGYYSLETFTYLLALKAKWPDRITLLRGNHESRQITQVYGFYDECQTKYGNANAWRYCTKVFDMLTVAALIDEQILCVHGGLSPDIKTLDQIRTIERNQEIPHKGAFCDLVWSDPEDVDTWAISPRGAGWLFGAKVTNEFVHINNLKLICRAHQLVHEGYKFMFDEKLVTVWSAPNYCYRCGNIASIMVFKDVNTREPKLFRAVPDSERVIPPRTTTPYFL
UniProt P63098, whole entry, looked up: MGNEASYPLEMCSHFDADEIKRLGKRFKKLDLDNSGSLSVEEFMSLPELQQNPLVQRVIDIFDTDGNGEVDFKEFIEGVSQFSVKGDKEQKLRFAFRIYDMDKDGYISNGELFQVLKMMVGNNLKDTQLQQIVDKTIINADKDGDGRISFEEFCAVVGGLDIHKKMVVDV
UniProt Q15173: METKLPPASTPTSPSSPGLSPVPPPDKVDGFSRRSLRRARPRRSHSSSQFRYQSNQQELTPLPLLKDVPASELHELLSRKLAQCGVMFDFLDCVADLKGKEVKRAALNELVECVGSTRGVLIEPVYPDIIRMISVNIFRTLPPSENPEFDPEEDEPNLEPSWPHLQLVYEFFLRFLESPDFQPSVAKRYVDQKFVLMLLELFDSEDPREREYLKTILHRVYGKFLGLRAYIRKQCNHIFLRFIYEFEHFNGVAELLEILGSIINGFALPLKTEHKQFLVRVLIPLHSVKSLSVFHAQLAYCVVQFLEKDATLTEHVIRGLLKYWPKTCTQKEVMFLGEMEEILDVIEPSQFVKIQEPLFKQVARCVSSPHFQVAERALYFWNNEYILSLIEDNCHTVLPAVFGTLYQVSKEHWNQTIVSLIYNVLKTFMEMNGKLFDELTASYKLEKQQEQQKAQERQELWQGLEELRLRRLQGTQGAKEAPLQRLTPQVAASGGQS
UniProt Q9NQV6: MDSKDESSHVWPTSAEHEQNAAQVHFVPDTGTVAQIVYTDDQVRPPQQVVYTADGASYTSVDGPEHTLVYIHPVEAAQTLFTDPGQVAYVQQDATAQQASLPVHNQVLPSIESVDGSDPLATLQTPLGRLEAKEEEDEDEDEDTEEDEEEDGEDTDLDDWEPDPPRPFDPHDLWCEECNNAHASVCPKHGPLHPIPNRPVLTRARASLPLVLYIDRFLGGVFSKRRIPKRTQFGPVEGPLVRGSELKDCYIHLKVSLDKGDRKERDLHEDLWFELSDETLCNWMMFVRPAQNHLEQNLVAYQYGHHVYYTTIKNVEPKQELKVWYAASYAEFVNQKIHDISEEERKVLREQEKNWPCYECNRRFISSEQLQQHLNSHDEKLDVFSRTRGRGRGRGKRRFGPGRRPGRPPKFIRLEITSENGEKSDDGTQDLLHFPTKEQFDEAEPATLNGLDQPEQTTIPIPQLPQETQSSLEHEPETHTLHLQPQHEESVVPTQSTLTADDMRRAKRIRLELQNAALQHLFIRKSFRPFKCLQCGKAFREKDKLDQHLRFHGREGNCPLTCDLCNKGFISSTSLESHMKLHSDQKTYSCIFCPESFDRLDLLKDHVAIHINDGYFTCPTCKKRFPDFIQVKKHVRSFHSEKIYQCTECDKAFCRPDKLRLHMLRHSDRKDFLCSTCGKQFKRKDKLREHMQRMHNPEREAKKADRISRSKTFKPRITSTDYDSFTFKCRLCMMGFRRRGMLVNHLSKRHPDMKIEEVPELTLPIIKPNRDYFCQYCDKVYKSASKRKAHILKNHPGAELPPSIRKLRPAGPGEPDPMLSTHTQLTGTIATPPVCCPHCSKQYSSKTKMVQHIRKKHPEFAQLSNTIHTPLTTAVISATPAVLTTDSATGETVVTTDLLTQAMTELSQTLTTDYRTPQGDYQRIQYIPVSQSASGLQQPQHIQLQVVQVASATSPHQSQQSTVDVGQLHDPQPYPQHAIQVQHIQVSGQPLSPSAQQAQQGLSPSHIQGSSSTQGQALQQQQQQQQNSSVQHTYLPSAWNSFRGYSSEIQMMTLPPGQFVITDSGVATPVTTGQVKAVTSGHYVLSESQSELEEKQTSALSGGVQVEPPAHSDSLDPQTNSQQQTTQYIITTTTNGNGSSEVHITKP
UniProt Q86WR7: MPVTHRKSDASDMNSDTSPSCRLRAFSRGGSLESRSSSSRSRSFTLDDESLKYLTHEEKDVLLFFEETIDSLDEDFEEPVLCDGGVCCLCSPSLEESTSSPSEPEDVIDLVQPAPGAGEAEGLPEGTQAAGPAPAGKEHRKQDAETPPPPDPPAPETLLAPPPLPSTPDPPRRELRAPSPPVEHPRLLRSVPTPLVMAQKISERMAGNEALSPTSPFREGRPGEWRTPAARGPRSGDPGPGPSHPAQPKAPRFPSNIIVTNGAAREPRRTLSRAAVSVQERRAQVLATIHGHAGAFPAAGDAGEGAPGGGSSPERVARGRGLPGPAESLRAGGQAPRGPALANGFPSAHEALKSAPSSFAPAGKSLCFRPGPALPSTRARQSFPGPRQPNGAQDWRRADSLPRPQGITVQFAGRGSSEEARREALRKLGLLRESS
UniProt Q969Q6: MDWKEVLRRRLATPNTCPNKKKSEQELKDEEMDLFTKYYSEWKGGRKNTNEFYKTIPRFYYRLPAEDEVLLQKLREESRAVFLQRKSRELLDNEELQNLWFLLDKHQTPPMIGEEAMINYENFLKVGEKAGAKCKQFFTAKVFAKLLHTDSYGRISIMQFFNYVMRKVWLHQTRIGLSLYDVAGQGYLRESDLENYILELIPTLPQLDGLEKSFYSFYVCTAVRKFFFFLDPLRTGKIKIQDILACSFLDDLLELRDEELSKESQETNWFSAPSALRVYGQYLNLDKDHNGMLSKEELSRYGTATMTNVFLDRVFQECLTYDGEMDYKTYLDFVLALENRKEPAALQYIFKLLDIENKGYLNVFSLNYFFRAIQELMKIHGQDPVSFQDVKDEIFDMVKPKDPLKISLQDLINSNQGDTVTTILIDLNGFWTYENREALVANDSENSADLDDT

Columns and labels:
Test in all cases: log2 fold change, soluble protein after heating vs DMSO (PISA); higher = thermal stabilisation; K562 lysate, 10 uM; active = over 0.2 and 3.5 SD of the protein, either way, in both replicates (recomputed)
erlotinib = compound: C#Cc1cccc(Nc2ncnc3cc(OCCOC)c(OCCOC)cc23)c1 [erlotinib]
How it was run: (§1)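 The values are log-two fold changes in thermal stability compared with solvent controls and come from duplicates. They were obtained by TMTpro 16plex LC-MS/MS, with channel sums equalised, on the supernatant after 21,000xg for 90 min. That supernatant came from crude K562 extract at 1 mg/mL protein treated with 10 μM compound for 30 min, heated for 3 min across 48°C-58°C, pooled and brought to 0.5% NP-40 at 4°C.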

[1] = compound: C/C(=N\NC(=O)C1=CC(=CC=C1)S(=O)(=O)N2CCOCC2)/C3=C(C=CC(=C3)Cl)O
How it was run: as §1

[2] = compound: C1=CC(=CC=C1C2=NC3=C(N2)C=C(C=C3)C(=O)N)OC4=CC=C(C=C4)Cl
How it was run: as §1

[3] = compound: C1=CC2=C(C=CC(=C2)/C=C\3/C(=O)NC(=NCC4=CC=CS4)S3)N=C1
How it was run: as §1

[4] = compound: C1=CC2=NC=CN=C2C=C1/C=C/3\C(=O)NC(=O)S3
How it was run: as §1

[5] = compound: C1=CC=C(C=C1)C2=NC(=C(N2)C3=CC=NC=C3)C4=CC(=C(C=C4)Cl)O
How it was run: as §1

[6] = compound: C1=CC=C2C(=C1)C3=NNC4=CC=CC(=C43)C2=O
How it was run: as §1

[7] = compound: C1CCN(C1)C(=O)NC2=CC=CC(=C2)NC3=NC=C(C(=N3)NCCC4=CN=CN4)Br
How it was run: as §1

[8] = compound: C1CN(CCC1(CC2=CC=C(C=C2)Cl)N)C3=NC=NC4=C3C=CN4
How it was run: as §1

IRAK-1-4 Inhibitor I = compound: C1COCCN1CCN2C3=CC=CC=C3N=C2NC(=O)C4=CC(=CC=C4)[N+](=O)[O-] [IRAK-1-4 Inhibitor I]
How it was run: as §1

ibrutinib = compound: C=CC(=O)N1CCC[C@@H](n2nc(-c3ccc(Oc4ccccc4)cc3)c3c(N)ncnc32)C1 [ibrutinib]
How it was run: as §1

[9] = compound: CC(=O)c1cnc2ccc(-c3cc(Cl)c(O)c(Cl)c3)nc2c1N[C@H]1CC[C@H](CN(C)C)CC1
How it was run: as §1

ralimetinib = compound: CC(C)(C)Cn1c(N)nc2ccc(-c3[nH]c(C(C)(C)C)nc3-c3ccc(F)cc3)nc21 [ralimetinib]
How it was run: as §1

[10] = compound: CC(C)(O)CC(=O)NCCn1ccc2ncnc(Nc3ccc(Oc4cccc(C(F)(F)F)c4)c(Cl)c3)c21
How it was run: as §1

[11] = compound: CC(C)C1=C2N=C(C=C(N2N=C1)NCC3=CC=CC=C3)NCCCCCCN
How it was run: as §1

[12] = compound: CC1=C(C=C(C=C1)NC(=O)C2=CC(=CC=C2)N(C)C)NC(=O)C3=CC=C(C=C3)O
How it was run: as §1

[13] = compound: CC1=CC=C(C=C1)SC2=C3C=C(SC3=CN=C2)C(=O)N
How it was run: as §1

[14] = compound: CC1=C(C(CC(=O)N1)C2=CC=C(C=C2)C(F)(F)F)C(=O)NC3=C(C=C4C(=C3)C=NN4)F
How it was run: as §1

[15] = compound: CC1=C(C2=C(C=C1)C(=O)C3=CC=CC=C3N2CCCN)C
How it was run: as §1

[16] = compound: CC1=C(C=C(C=C1)NC(=O)C2=CC(=CC=C2)C(C)(C)C#N)NC3=CC4=C(C=C3)N=CN(C4=O)C
How it was run: as §1

Measured: log2 fold change

PPP1R16A (UniProt Q96I34)
inactive: erlotinib 0.177 | [1] -0.074 | [2] 0.018 | [3] 0.011 | [4] -0.11 | [5] -0.009 | [6] 0.02 | [7] -0.099 | [8] 0.058 | IRAK-1-4 Inhibitor I 0.058 | ibrutinib 0 | [9] -0.005 | ralimetinib 0.089 | [10] -0.147 | [11] -0.185 | [12] 0.147 | [13] -0.131

PRDX1 (UniProt Q06830)
inactive: erlotinib -0.013 | [1] 0.015 | [2] 0.071 | [3] -0.009 | [4] -0.02 | [5] -0.021 | [6] 0.01 | [7] 0.002 | [8] -0.01 | IRAK-1-4 Inhibitor I -0.009 | ibrutinib 0.021 | [9] -0.006 | ralimetinib 0.001 | [10] -0.02 | [11] 0.031 | [14] -0.009 | [15] 0 | [16] -0.024 | [12] 0.009 | [13] -0.02

PPIP5K2 (UniProt H0Y9S9)
inactive: erlotinib 0 | [1] -0.115 | [2] -0.071 | [3] -0.017 | [4] 0.057 | [5] 0.059 | [6] -0.083 | [7] -0.085 | [8] -0.083 | IRAK-1-4 Inhibitor I -0.059 | ibrutinib 0.053 | [9] 0.052 | ralimetinib -0.188 | [10] -0.19 | [11] 0.093 | [15] -0.076 | [12] 0.113 | [13] -0.027

PPP2R1A (UniProt P30153)
inactive: erlotinib -0.001 | [1] 0.017 | [2] -0.03 | [3] -0.016 | [4] -0.009 | [5] 0.007 | [6] 0.009 | [7] 0.009 | [8] 0.003 | IRAK-1-4 Inhibitor I 0.004 | ibrutinib 0.019 | [9] 0.003 | ralimetinib 0.016 | [10] 0.003 | [11] -0.005 | [14] 0.005 | [15] 0.016 | [16] -0.027 | [12] 0.009 | [13] 0.009

PPP2R5C isoform 4 (UniProt Q13362)
inactive: erlotinib 0.025 | [1] -0.048 | [2] -0.054 | [3] -0.012 | [4] -0.009 | [5] 0.044 | [6] -0.01 | [7] 0.046 | [8] 0.08 | IRAK-1-4 Inhibitor I 0.002 | ibrutinib 0.023 | [9] -0.011 | ralimetinib -0.089 | [10] -0.05 | [11] -0.032 | [14] -0.003 | [15] 0.095 | [16] 0.05 | [12] 0.012 | [13] 0.001

PPP1R3D (UniProt O95685)
inactive: erlotinib -0.082 | [1] 0.014 | [2] -0.026 | [3] -0.062 | [4] -0.055 | [5] 0.003 | [6] -0.007 | IRAK-1-4 Inhibitor I -0.019 | ibrutinib -0.077 | [9] -0.003 | ralimetinib -0.025 | [10] -0.004 | [11] -0.055 | [14] -0.02 | [16] 0.035 | [12] -0.024 | [13] -0.014

PPP1R13L (UniProt Q8WUF5)
inactive: erlotinib 0.014 | [1] 0.006 | [2] 0.034 | [3] -0.049 | [4] -0.078 | [5] 0.01 | [6] -0.064 | [7] -0.036 | [8] 0.079 | IRAK-1-4 Inhibitor I 0 | ibrutinib 0.109 | [9] -0.036 | ralimetinib 0.083 | [10] -0.26 | [11] -0.015 | [14] -0.084 | [16] -0.003 | [12] 0.035 | [13] -0.104

PPP6C isoform 3 (UniProt O00743)
inactive: erlotinib -0.011 | [1] -0.001 | [2] 0.002 | [3] 0.005 | [4] -0.002 | [5] 0.003 | [6] 0.026 | [7] 0.016 | [8] 0.02 | IRAK-1-4 Inhibitor I 0.011 | ibrutinib 0.015 | [9] 0.031 | ralimetinib 0.04 | [10] 0.018 | [11] 0.009 | [14] -0.044 | [15] 0.044 | [16] 0.006 | [12] 0.007 | [13] -0.005

3 consecutive entries from above:
PPP2R5C isoform 4 (UniProt Q13362)
inactive: erlotinib 0.025 | [1] -0.048 | [2] -0.054 | [3] -0.012 | [4] -0.009 | [5] 0.044 | [6] -0.01 | [7] 0.046 | [8] 0.08 | IRAK-1-4 Inhibitor I 0.002 | ibrutinib 0.023 | [9] -0.011 | ralimetinib -0.089 | [10] -0.05 | [11] -0.032 | [14] -0.003 | [15] 0.095 | [16] 0.05 | [12] 0.012 | [13] 0.001

PPP1R3D (UniProt O95685)
inactive: erlotinib -0.082 | [1] 0.014 | [2] -0.026 | [3] -0.062 | [4] -0.055 | [5] 0.003 | [6] -0.007 | IRAK-1-4 Inhibitor I -0.019 | ibrutinib -0.077 | [9] -0.003 | ralimetinib -0.025 | [10] -0.004 | [11] -0.055 | [14] -0.02 | [16] 0.035 | [12] -0.024 | [13] -0.014

PPP1R13L (UniProt Q8WUF5)
inactive: erlotinib 0.014 | [1] 0.006 | [2] 0.034 | [3] -0.049 | [4] -0.078 | [5] 0.01 | [6] -0.064 | [7] -0.036 | [8] 0.079 | IRAK-1-4 Inhibitor I 0 | ibrutinib 0.109 | [9] -0.036 | ralimetinib 0.083 | [10] -0.26 | [11] -0.015 | [14] -0.084 | [16] -0.003 | [12] 0.035 | [13] -0.104

(continued)

PPP3R1 (UniProt P63098)
inactive: erlotinib -0.022 | [1] 0.042 | [2] 0 | [3] 0.06 | [4] -0.024 | [5] 0.014 | [6] 0.069 | [7] -0.031 | [8] 0.028 | IRAK-1-4 Inhibitor I -0.01 | ibrutinib 0.093 | [9] -0.027 | ralimetinib 0.024 | [10] 0.015 | [11] 0.013 | [14] -0.068 | [15] 0.026 | [16] 0.035 | [12] 0.023 | [13] -0.031

PPP2R5B (UniProt Q15173)
inactive: erlotinib -0.026 | [1] 0.038 | [2] 0.056 | [3] -0.106 | [4] 0.123 | [5] 0 | [6] 0.052 | [7] -0.051 | [8] -0.042 | IRAK-1-4 Inhibitor I 0.016 | ibrutinib 0.042 | [9] 0.033 | ralimetinib 0 | [10] -0.046 | [11] -0.055 | [15] 0.009 | [16] 0.026 | [12] 0.08 | [13] -0.053

PRDM10 isoform 6 (UniProt Q9NQV6)
inactive: erlotinib -0.045 | [1] 0.032 | [2] 0.007 | [3] -0.063 | [4] -0.072 | [5] -0.042 | [6] -0.093 | [7] 0.146 | [8] -0.058 | IRAK-1-4 Inhibitor I -0.158 | ibrutinib 0.03 | [9] 0.011 | ralimetinib 0.043 | [10] -0.196 | [11] 0.061 | [12] 0.058 | [13] -0.114

PROSER2 (UniProt Q86WR7)
inactive: erlotinib -0.028 | [1] -0.046 | [2] 0.042 | [3] 0.026 | [4] -0.012 | [5] -0.03 | [6] 0.028 | [7] -0.038 | [8] -0.042 | IRAK-1-4 Inhibitor I 0.038 | ibrutinib 0.056 | [9] -0.009 | ralimetinib 0.023 | [10] -0.029 | [11] -0.054 | [14] 0.051 | [15] -0.013 | [16] 0.038 | [12] -0.03 | [13] -0.03

PPP2R3C (UniProt Q969Q6)
inactive: erlotinib -0.061 | [1] -0.009 | [2] -0.126 | [3] -0.025 | [4] -0.019 | [5] 0.033 | [6] -0.032 | [7] -0.023 | [8] -0.035 | IRAK-1-4 Inhibitor I -0.018 | ibrutinib 0.108 | [9] 0.089 | ralimetinib 0.109 | [10] 0.036 | [11] -0.088 | [14] 0.021 | [15] -0.02 | [12] 0.048 | [13] 0.196
